No constants are given. Whether binding was seen depends on the method and setting. Binding seen in cells or lysates may run through a third protein. Some binding calls cover weakened binding; strength is not graded here.

By UniProt entry, the sequences of proteins in these tests, tags left out.
UniProt P20700: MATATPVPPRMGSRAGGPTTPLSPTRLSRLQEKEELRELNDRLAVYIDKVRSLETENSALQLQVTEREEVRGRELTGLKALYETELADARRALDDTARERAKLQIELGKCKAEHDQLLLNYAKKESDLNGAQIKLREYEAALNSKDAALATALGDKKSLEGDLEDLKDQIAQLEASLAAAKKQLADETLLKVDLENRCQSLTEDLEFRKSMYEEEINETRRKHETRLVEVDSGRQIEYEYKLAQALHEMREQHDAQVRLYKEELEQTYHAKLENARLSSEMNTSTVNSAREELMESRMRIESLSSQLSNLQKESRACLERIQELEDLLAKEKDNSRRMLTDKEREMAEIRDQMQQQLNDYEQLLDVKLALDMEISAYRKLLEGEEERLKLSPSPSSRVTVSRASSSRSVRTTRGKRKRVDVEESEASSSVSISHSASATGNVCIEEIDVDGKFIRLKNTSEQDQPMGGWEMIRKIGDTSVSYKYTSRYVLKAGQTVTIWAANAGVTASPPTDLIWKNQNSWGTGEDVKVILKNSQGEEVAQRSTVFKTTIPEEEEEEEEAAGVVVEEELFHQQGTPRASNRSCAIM
UniProt Q9P2P5: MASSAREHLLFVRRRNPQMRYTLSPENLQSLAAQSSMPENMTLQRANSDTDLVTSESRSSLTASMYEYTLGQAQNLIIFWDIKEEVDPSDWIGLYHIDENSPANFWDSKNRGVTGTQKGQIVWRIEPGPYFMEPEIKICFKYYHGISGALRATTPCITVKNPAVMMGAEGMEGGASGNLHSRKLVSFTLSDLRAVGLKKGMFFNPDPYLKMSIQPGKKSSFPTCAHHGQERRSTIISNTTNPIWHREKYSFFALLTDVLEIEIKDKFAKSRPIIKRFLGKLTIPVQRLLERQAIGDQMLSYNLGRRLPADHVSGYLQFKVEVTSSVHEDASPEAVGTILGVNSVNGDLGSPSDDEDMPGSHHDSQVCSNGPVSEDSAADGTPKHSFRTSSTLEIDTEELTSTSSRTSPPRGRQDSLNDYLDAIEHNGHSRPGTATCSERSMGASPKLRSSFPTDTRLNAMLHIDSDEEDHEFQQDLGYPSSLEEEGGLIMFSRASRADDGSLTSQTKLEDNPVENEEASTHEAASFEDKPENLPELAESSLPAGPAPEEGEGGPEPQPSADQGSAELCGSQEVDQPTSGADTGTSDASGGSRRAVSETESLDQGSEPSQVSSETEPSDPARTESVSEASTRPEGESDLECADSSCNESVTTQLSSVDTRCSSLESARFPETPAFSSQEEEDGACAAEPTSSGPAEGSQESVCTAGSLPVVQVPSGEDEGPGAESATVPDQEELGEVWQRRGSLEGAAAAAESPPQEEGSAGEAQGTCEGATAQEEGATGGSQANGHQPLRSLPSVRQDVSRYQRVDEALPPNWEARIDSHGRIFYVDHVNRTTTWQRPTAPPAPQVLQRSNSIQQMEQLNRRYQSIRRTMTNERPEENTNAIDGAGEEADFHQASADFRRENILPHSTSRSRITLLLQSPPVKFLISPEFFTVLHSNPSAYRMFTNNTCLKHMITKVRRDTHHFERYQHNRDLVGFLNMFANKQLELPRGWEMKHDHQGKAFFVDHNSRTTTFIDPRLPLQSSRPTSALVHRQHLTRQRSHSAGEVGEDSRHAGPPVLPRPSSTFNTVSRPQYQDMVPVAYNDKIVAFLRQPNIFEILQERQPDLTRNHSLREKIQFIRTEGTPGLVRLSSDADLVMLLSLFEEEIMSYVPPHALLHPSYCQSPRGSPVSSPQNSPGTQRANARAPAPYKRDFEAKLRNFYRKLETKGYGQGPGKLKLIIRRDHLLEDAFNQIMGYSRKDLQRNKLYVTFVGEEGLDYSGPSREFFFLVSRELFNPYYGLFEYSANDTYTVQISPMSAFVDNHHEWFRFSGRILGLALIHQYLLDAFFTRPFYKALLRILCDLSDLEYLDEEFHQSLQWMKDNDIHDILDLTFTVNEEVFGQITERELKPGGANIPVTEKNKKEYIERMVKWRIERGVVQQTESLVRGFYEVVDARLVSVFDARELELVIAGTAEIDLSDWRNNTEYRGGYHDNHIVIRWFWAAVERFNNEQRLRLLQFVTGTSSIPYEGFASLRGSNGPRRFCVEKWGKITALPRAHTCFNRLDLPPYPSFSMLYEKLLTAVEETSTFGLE

Consider 1 substance from article PMC10539569.

For this assay, the target named is lamin B1 (human (endogenous in human CRC cell lines)) (UniProt P20700). The assay can be described thus: co-IP; whole-cell extracts of CRC cells preincubated with protein A and G beads, then IgG or lamin B1 antibody overnight at 4 C; beads washed three times with Tris-HCl buffered saline; SDS-PAGE.

As to “HECW2 (HECT, C2 and WW domain containing E3 ubiquitin protein ligase 2) (from UniProt Q9P2P5 1-1572) (enzyme)”, the binding entry is given as “binds”.
